Results: PubChem BioAssay AID493014 (National Center for Advancing Translational Sciences (NCATS), 2011)
The other results are listed elsewhere or left out. Shown are side measurements of this screen, not its main read-out; they come without a call. Most of these compounds were active or inconclusive in the main read-out, so they are no random draw. The note in brackets gives the kind of curve behind each potency; many fits are weak.

Test: qHTS Assay to Find Inhibitors of Chronic Active B-Cell Receptor Signaling
Settings: ABC-DLBCL IkBa-CBG/CBR reporter, luminescence ratio (green luciferase fused to IkBa over red control in TMD8 lymphoma cells), 4 h
How it was run: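 Cell line TMD8 (human ABC DLBCL), stably expressing tet-inducible CBG68-IkBa fusion and CBR; IMDM/0.5% FBS; cpd up to 46 uM; dox induction, 4 h, 37C/5% CO2; dual luminescence; green/red ratio; MG132 control.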

[1] = measured here: CBR red luminescence, cell number
[2] = measured here: IkBa-CBG green luminescence

| SMILES | AC50 [1] | AC50 [2] |
| --- | --- | --- |
| O=C(CSc1nc2ccccc2c(=O)n1-c1ccccc1)c1c[nH]c2ccccc12 | 2.31 µM [rising, partial curve, poor fit] | – |
| CCN(CC)CCN1C(=O)c2oc3ccccc3c(=O)c2C1c1ccc(F)cc1 (stereo unspecified) | 25.9 µM [falling, partial curve] | – |
| O=C(CSc1nc2ccccc2o1)c1cc2ccccc2oc1=O | 29.1 µM [falling, single point] | – |
| CNc1oc(-c2ccc(OCc3ccccc3)cc2)nc1C#N | 3.16 µM [rising, full curve] | – |
| CCOc1ccc(N(CC(=O)NCc2ccc(C)cc2)S(=O)(=O)c2c(C)[nH]c(=O)[nH]c2=O)cc1 | 3.98 µM [falling, partial curve] | – |
| CCN(CC)S(=O)(=O)c1ccc(OCC(=O)NC(=O)c2ccccc2OC)c([N+](=O)[O-])c1 | 10 µM [rising, partial curve] | – |
| CCOc1cc(CNCCN2CCOCC2)ccc1OCc1ccccc1Cl | 35.5 µM [falling, single point] | – |
| CC(C)n1cc(CN2CCCC(C(=O)Nc3cccc(-c4cc5ccccc5[nH]4)c3)C2)cn1 (stereo unspecified) | 20 µM [falling, partial curve, poor fit] | – |
| COc1ccccc1NCC(O)Cn1c2ccccc2c2ccccc21 (stereo unspecified) | 29.1 µM [falling, single point] | – |
| O=C(/C=C/c1ccc(Br)cc1)NC(=S)NNC(=O)c1ccco1 | 0.411 µM [rising, full curve] | – |
| Cc1ccsc1CNn1cnnc1SCc1ccc(Cl)cc1 | 8.2 µM [rising, partial curve, poor fit] | – |
| COc1ccccc1N1CCN(S(=O)(=O)c2c(C)ccc3nsnc23)CC1 | 14.6 µM [rising, partial curve, poor fit] | – |
| O=C(Nc1cccc(S(=O)(=O)N2CCCCCC2)c1)c1cc(=O)c2ccccc2o1 | 6.31 µM [falling, full curve] | – |
| O=C(COC(=O)C1COc2ccccc2O1)Nc1ccc2c(c1)CCC2 (stereo unspecified) | 14.1 µM [rising, partial curve, poor fit] | – |
| CCOc1ccc(CSC(=N)N)cc1[N+](=O)[O-] | 16.4 µM [falling, partial curve, poor fit] | – |
| Cc1ccc(C2/C(=C(/O)c3cnn(-c4ccccc4)c3C)C(=O)C(=O)N2CCCN2CCOCC2)o1 (stereo unspecified) | 2 µM [rising, partial curve, poor fit] | – |
| CCOC(=O)C1C(=O)C=C(c2ccc(C)cc2)CC1c1cccc([N+](=O)[O-])c1 (stereo unspecified) | – | 18.4 µM [rising, partial curve, poor fit] |
| c1ccc(CSc2nc3ccccc3[nH]2)cc1 | 3.98 µM [rising, full curve] | – |
| C=CC[C@@H](CC(=O)N[C@H](CO)Cc1ccccc1)C(=O)N[C@H](COC(=O)[C@@H](CC=C)Cc1ccc(F)cc1)C(C)(C)C | 18.4 µM [falling, single point] | – |
| O=C(Nc1ccc2c(c1)OCCO2)c1ccccn1 | 11.2 µM [falling, partial curve] | – |
| COC(=O)c1ccc(Oc2nc3c(c(=O)n(C)c(=O)n3C)n2CCC(C)C)cc1 | 2.31 µM [rising, full curve] | – |

| SMILES | AC50 [1] | AC50 [2] |
| --- | --- | --- |
| CCc1cccc2c(C(=O)CN3C(=O)N(C)C4(CCCCC4)C3=O)c[nH]c12 | 6.51 µM [falling, single point] | – |
| CCSC1=N/C(=C\c2ccc(C(=O)O)cc2)C(=O)S1 | 14.1 µM [falling, partial curve] | – |
| CCOC(=O)CNC(=O)CSc1nnc(-c2c[nH]c3ccccc23)n1CC | 35.5 µM [rising, single point] | – |
| CCCCC(=O)Nc1ccc2oc(-c3ccncc3)nc2c1 | 1.3 µM [rising, full curve, poor fit] | – |
| CN(C(=O)C1CCCN1S(=O)(=O)c1ccc(Cl)cc1)c1ccccc1 (stereo unspecified) | 5.17 µM [falling, single point] | – |
| O=C(Nc1ccc(Oc2ccccc2)nc1)C1CCN(Cc2cccc(F)c2)CC1 | 35.5 µM [falling, single point] | – |
| O=S1(=O)C=C(Sc2nc3cc(Cl)ccc3o2)c2ccccc21 | – | 5.62 µM [falling, full curve] |
| COCC(=O)Nc1cc(OC)c(Cl)cc1OC | 0.206 µM [rising, full curve, poor fit] | – |
| COC(=O)c1ccc(C(=O)Nc2ccc3c(c2)C(=O)NC3=O)cc1 | 0.562 µM [falling, full curve, poor fit] | – |
| COc1cccc(C2CC(c3cccs3)=NN2C(=O)c2ccco2)c1O (stereo unspecified) | 35.5 µM [falling, single point] | – |
| O=C(O)c1cc(-c2c[nH]c3ccccc23)nc2cc3ccccc3cc12 | 7.08 µM [falling, partial curve] | – |
| COc1ccc(-n2c(COc3cccc(C)c3)nnc2SCC(=O)NCc2ccco2)cc1 | 5.17 µM [falling, full curve, poor fit] | – |
| CCCCCOc1ccc(CSCCNC(=S)Nc2ccccc2)cc1 | 29.1 µM [falling, single point] | – |
| O=C(N=Nc1c(O)[nH]c2ccccc12)c1cc(-c2cccs2)[nH]n1 | 0.316 µM [falling, full curve, poor fit] | – |
| COc1ccc(NC(=O)CN(C)C(=O)c2ccccc2OC)cc1 | 10 µM [rising, partial curve, poor fit] | – |
| CCCn1c(SCC(=O)Nc2cccc(C)n2)nnc1-c1ccco1 | 7.94 µM [falling, partial curve, poor fit] | – |
| CCOc1ccc(NC(=O)C(C)SC(N)=O)cc1 (stereo unspecified) | 12.6 µM [falling, partial curve, poor fit] | – |
| O=c1[nH]c(SCc2nc3c(cnn3-c3ccccc3)c(=O)[nH]2)nc2ccccc12 | 5.01 µM [falling, partial curve, poor fit] | – |
| O=C(/C(C=Nc1cccc(C(F)(F)F)c1)=C(/O)c1ccco1)C(F)(F)F | 2.06 µM [rising, full curve, poor fit] | – |
| CC(NC(=O)CN1C(=O)NC(C)(c2cccc3ccccc23)C1=O)c1ccccc1 (stereo unspecified) | 3.55 µM [falling, single point] | – |
| COc1ccccc1OCCNC(=O)Nc1cc(F)c(F)cc1Cl | 10 µM [falling, partial curve, poor fit] | 11.2 µM [rising, single point] |

| SMILES | AC50 [1] | AC50 [2] |
| --- | --- | --- |
| CCCCSc1nc(C)c(C(C)=O)cc1C#N | 10 µM [rising, partial curve, poor fit] | 11.2 µM [falling, single point] |
| CC1=NN(C(=O)c2cccnc2)C(O)(C(F)(F)F)C1 (stereo unspecified) | 14.1 µM [falling, single point] | – |
| CC1(c2nnc(-c3ccc(F)cc3)o2)CC(c2cccc(Cl)c2)=NO1 (stereo unspecified) | 5.62 µM [rising, partial curve, poor fit] | – |
| CN1CCN(C(=S)C(=O)Nc2ccc(Br)cc2)CC1 | 22.4 µM [rising, single point] | – |
| O=C(Nc1nc2ccccc2[nH]1)c1cccs1 | 3.98 µM [falling, full curve, poor fit] | – |
| O=C(COc1ccccc1F)NNC(=O)c1ccc(F)c(S(=O)(=O)N2CCOCC2)c1 | 0.082 µM [rising, full curve, poor fit] | – |
| COc1ccccc1NC(=O)CC1C(=O)Nc2c1c(=O)n(C)c(=O)n2C (stereo unspecified) | 0.631 µM [falling, full curve, poor fit] | – |
| COc1ccc(CCNC(=O)c2[nH]c(C)c(C(C)=O)c2C)cc1 | 29.1 µM [rising, single point] | – |
| C=CCn1c(=O)c2c(nc3n2CC(C)CN3Cc2ccccc2)n(C)c1=O (stereo unspecified) | 35.5 µM [rising, single point] | – |
| Nc1ccc(C(=O)OC2CCOC2=O)cc1[N+](=O)[O-] (stereo unspecified) | 6.51 µM [rising, single point] | – |
| Cc1ccccc1OCC(O)CN1CCN(CC(O)COc2ccccc2C)C(C)C1 (stereo unspecified) | 17.8 µM [falling, single point] | – |
| CC(=O)[C@@H]1[C@@H](C(=O)c2ccc(C)cc2)[C@]2(C(=O)Nc3ccccc32)[C@H]2C=Cc3cc(F)ccc3N12 | 1.26 µM [falling, full curve] | – |
| COc1ccc(-n2nc3c(N4CCCC(C(=O)NCc5ccccc5C)C4)nnc(C)c3c2C)cc1 (stereo unspecified) | 29.1 µM [falling, single point] | 25.9 µM [rising, partial curve, poor fit] |
| O=C(c1ccc(CS(=O)Cc2ccccc2Cl)o1)N1CCN(C2CCCCC2)CC1 (stereo unspecified) | 0.355 µM [rising, partial curve, poor fit] | – |
| Cc1cc(C(=O)Cn2cc(C(F)(F)F)ccc2=O)c(C)n1-c1ccccc1 | 8.2 µM [rising, partial curve] | – |
| CC(C)CNC(=O)CC(c1ccccc1)c1c(O)ccc2ccccc12 (stereo unspecified) | 22.4 µM [falling, single point] | – |
| CC(=O)Nc1ccc2nc(-c3ccccc3)cn2c1 | 29.1 µM [falling, single point] | – |
| CC(C)CN1C(=O)NC(NC(=O)c2cccs2)(C(F)(F)F)C1=O (stereo unspecified) | 35.5 µM [rising, single point] | – |
| CCCCC(C)(O)C/C=C/[C@H]1[C@H](O)CC(=O)[C@@H]1CCCCCCC(=O)OC (stereo partly specified) | 1.16 µM [rising, full curve] | 2.31 µM [falling, full curve] |
| FC(F)(F)c1nnc(-c2ccccc2)nc1Oc1ccc(Cl)cc1Cl | 20 µM [falling, single point] | – |

Another view of some results above.
SMILES,AC50 [1],AC50 [2]
CC(=O)Nc1ccc2nc(-c3ccccc3)cn2c1,"29.1 µM [falling, single point]",–
CC(C)CN1C(=O)NC(NC(=O)c2cccs2)(C(F)(F)F)C1=O (stereo unspecified),"35.5 µM [rising, single point]",–
CCCCC(C)(O)C/C=C/[C@H]1[C@H](O)CC(=O)[C@@H]1CCCCCCC(=O)OC (stereo partly specified),"1.16 µM [rising, full curve]","2.31 µM [falling, full curve]"
